The other results are listed elsewhere or left out. These are raw signals, not scaled to a control.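 First-pass screen: polymyxin B was added at a level that permeabilizes the Salmonella outer membrane while sparing the inner membrane. DMSO wells, with and without polymyxin B, defined maximum growth. Because plates differed from one another, each plate's data were ranked separately and the compounds with the lowest OD600 were carried forward as hits.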
System: Salmonella enterica serovar Typhimurium SL1344
Test: bacterial growth OD600 after 18 h with compound and polymyxin B; higher = more bacterial growth (less inhibition)
Conditions: 50 µM, Mueller-Hinton broth

With Cc1ccccc1-c1noc(-c2ccc(N[C@H]3CC[C@H](O)CC3)nc2)n1 the “bacterial growth OD600” value (polymyxin B 0.75 µg/mL) was 0.001.

For CCOC(=O)C1(Cc2ccc(F)cc2F)CCCN(C(=O)c2c(C)nc3ncccn23)C1 (stereo unspecified), the “bacterial growth OD600” value (polymyxin B 1 µg/mL) was 0.945.

With CCOC(=O)N1CCN(C(=O)C2CC23CCN(C(=O)CSc2nc(C)cs2)CC3)CC1 (stereo unspecified) the “bacterial growth OD600” value (polymyxin B 0.75 µg/mL) was 0.813.

In the case of CO[C@H]1[C@H](NC(=O)c2ccco2)c2ccccc2C12CCN(Cc1[nH]c3c(C)cccc3c1C)CC2, the “bacterial growth OD600” value (polymyxin B 0.75 µg/mL) is reported as 0.782.

In the case of CCN(CC)CCNC(=O)c1cc(OC)ccc1OC1CCN(C2CCCC2)CC1, the “bacterial growth OD600” value (polymyxin B 1 µg/mL) is reported as 1.18.

COCC(=O)N1CCC(C2CCN(c3ncccn3)CC2)C1 (stereo unspecified) was tested, and the “bacterial growth OD600” value (polymyxin B 0.75 µg/mL) was 0.724.

For CCCCn1c(CN(C)C(C)C)cnc1S(=O)(=O)CCCC(C)C, the “bacterial growth OD600” value (polymyxin B 0.75 µg/mL) was 0.361.

With Cc1ccc2c(c1)CN(CC(=O)NCCc1nc3ccccc3n1C)CC(c1ccsc1)O2 (stereo unspecified) the “bacterial growth OD600” value (polymyxin B 0.75 µg/mL) was 0.003.

For CCOC(=O)C1(Cc2cccc(OC)c2)CCCN(Cc2cccc3c2OCO3)C1 (stereo unspecified), the “bacterial growth OD600” value (polymyxin B 1 µg/mL) was 0.813.

CCOC(=O)C1(Cc2ccccc2C(F)(F)F)CCN(CCCn2cccn2)CC1 was tested, and the “bacterial growth OD600” value (polymyxin B 1 µg/mL) was 0.857.

With COc1ccc(CN2CCCC(Nc3ccc(F)c(F)c3)C2)cc1OC (stereo unspecified) the “bacterial growth OD600” value (polymyxin B 1 µg/mL) was 0.901.

With CN(CC(O)c1ccccc1)C(=O)CC1(c2ccccc2)CC(=O)N(CCc2ccccn2)C1=O (stereo unspecified) the “bacterial growth OD600” value (polymyxin B 0.75 µg/mL) was 0.897.

With Cc1ncc2c(c1CNC(=O)c1ccccc1F)CCN(C(=O)CCc1ccc3c(c1)OCO3)C2 the “bacterial growth OD600” value (polymyxin B 0.75 µg/mL) was 0.719.

In the case of COc1ccccc1OCC(=O)NC1CC(=O)N(Cc2ccccc2Cl)C1 (stereo unspecified), the “bacterial growth OD600” value (polymyxin B 1 µg/mL) is reported as 0.931.

CCc1ncc(CNC(C)c2cnc(N(C)C3CCCCC3)nc2C)cn1 (stereo unspecified) was tested, and the “bacterial growth OD600” value (polymyxin B 0.75 µg/mL) was 0.743.

With Cc1cc2cc(C(=O)N3CCCC(CO)(CCc4ccccc4)C3)ccc2o1 (stereo unspecified) the “bacterial growth OD600” value (polymyxin B 0.75 µg/mL) was 0.227.

O=C(Cc1c[nH]c2ccccc12)NCC1Cc2c(F)ccc(-c3ccncc3)c2O1 (stereo unspecified) was tested, and the “bacterial growth OD600” value (polymyxin B 0.75 µg/mL) was 0.803.

In the case of Cc1ccsc1C(=O)N1CC[C@@H](N2CCN(c3ccccc3F)CC2)[C@H](O)C1, the “bacterial growth OD600” value (polymyxin B 1 µg/mL) is reported as 0.976.

Cc1c(-c2ccccc2F)[nH]c2ccc(CNC(=O)CCCn3cncn3)cc12 was tested, and the “bacterial growth OD600” value (polymyxin B 1 µg/mL) was 0.548.

In the case of COC(=O)CCCC(=O)N(C)C1CCCN(CCc2ccccc2)C1 (stereo unspecified), the “bacterial growth OD600” value (polymyxin B 1 µg/mL) is reported as 1.22.

With Clc1ccccc1CNC1CCCc2nc(-c3cccnc3)ncc21 (stereo unspecified) the “bacterial growth OD600” value (polymyxin B 1 µg/mL) was 0.821.

In the case of COc1cc(C(=O)N(C)Cc2ccc(F)cc2)ccc1OC1CCN(C(C)=O)CC1, the “bacterial growth OD600” value (polymyxin B 1 µg/mL) is reported as 0.929.

In the case of CCCC(=O)NC1CC(=O)N(Cc2cccc3ccccc23)C1 (stereo unspecified), the “bacterial growth OD600” value (polymyxin B 1 µg/mL) is reported as 0.993.

For Cc1ncc2c(c1CNC(=O)Cc1cccs1)CCN(C(=O)/C=C/c1ccccc1Cl)C2, the “bacterial growth OD600” value (polymyxin B 0.75 µg/mL) was 0.809.

In the case of O=C(CC1(c2cccc(F)c2)CC(=O)N(C2CCCC2)C1=O)N1CCN(C2CCCC2)C(=O)C1 (stereo unspecified), the “bacterial growth OD600” value (polymyxin B 0.75 µg/mL) is reported as 0.58.

O=C(CSc1ccccn1)NC1CCCc2nc(-c3cccnc3)ncc21 (stereo unspecified) was tested, and the “bacterial growth OD600” value (polymyxin B 1 µg/mL) was 0.841.

For c1csc(-c2noc(CN3CCC(c4nc5ccccc5o4)CC3)n2)c1, the “bacterial growth OD600” value (polymyxin B 1 µg/mL) was 0.776.

With CN(CCc1ccccn1)C(=O)c1cc(COc2cccc3cnccc23)on1 the “bacterial growth OD600” value (polymyxin B 1 µg/mL) was 1.

For COc1ccc(C(=O)NC2CC2)c(OC2CCN(CC3CC=CCC3)CC2)c1 (stereo unspecified), the “bacterial growth OD600” value (polymyxin B 0.75 µg/mL) was 0.837.

With O=C(NCCCN1CCOCC1)c1cnn(-c2ncc3c(n2)-c2ccccc2CCC3)c1C1CC1 the “bacterial growth OD600” value (polymyxin B 0.75 µg/mL) was 0.833.

For C=C(C)CNC(=O)C1CCN(C2CCN(Cc3cccc(C)n3)CC2)CC1, the “bacterial growth OD600” value (polymyxin B 0.75 µg/mL) was 0.813.
